This is an account of results in paper PMC13202173, “Polyphosphate as a novel regulator of super-enhancer complexes: disruption of phase separation and gene expression”.

Protein sequences, listed by entry. Tags and fused reporters are not part of them.
UniProt P25490: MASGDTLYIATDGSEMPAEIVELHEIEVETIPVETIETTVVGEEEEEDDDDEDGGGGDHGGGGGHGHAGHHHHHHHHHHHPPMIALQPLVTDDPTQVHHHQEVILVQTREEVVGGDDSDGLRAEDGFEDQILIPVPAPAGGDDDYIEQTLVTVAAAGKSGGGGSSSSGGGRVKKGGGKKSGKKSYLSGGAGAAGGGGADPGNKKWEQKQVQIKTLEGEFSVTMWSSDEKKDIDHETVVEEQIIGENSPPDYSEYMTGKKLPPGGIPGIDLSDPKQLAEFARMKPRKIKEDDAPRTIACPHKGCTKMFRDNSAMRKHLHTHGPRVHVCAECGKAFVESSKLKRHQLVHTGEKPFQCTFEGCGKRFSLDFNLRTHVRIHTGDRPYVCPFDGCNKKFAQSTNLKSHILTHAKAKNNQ

These are yes or no findings as the source states them, for the method shown. In cells and extracts the contact can be indirect. Some results given as binding are weak or reduced against the parent protein; the word gives no strength.

Assay [1] concerns the target Yin Yang 1 (YY1), FLAG-tagged and HA-tagged copies (UniProt P25490). The assay can be described thus: condition: only in nuclear extracts from cells co-expressing PPK1 (polyP accumulation); co-IP; 100 ug nuclear extract from HeLa cells triple-transfected with FLAG-YY1, HA-YY1 and mCherry-PPK1 (polyP made in the cells); anti-HA on protein G beads, overnight at 4 °C.
For assay [2] the target is unchanged. The assay can be described thus: co-IP; equal amounts (100 ug each) of nuclear extracts from HeLa cells singly transfected with FLAG-YY1 or HA-YY1 were mixed; anti-HA on protein G beads, overnight at 4 °C; ddH2O instead of polyP; blot with anti-FLAG and anti-HA.
Assay [3] has the same target. The assay can be described thus: condition: only with polyP100 (5 mM polyP by the methods); co-IP; as a1 but with polyP100 added to the immunoprecipitation (5 mM polyP by the methods).
Assay [4] shares this target. Description: co-IP; as a1 but with 5 mM polyP700 added to the bead and extract mixture.

In the case of “Yin Yang 1 (YY1), FLAG-tagged and HA-tagged copies (from UniProt P25490 1-414)”, the binding result is reported as “no binding” in assay [1], “binds” in assay [2], “no binding” in assay [3] and “no binding (condition: with 5 mM polyP700)” in assay [4].
